# From the supplement of paper PMC5407854, “Inhibitor of ppGalNAc-T3-mediated O-glycosylation blocks cancer cell invasiveness and lowers FGF23 levels” (eLife, 2017)
# In all, about 1,700 compounds were measured (“T3 sensor activation Q score (MG/GFP ratio z-score vs DMSO controls)”: median about 0.25, highest 2% from about 1.9 on). The list shows a part of the results. Numbered stars: 1 amine (or outer) side, 2 acyl side, 3 side chain; on linkers, the order of the positions; unused ones are H or OH. Bridge positions count the residues as written; N and C are the ends. Square brackets hold non-standard residues; d marks the D form. Peptide text beside a SMILES is read from it. I, II: the chains in the order shown. Actinocin(9to1) = Cc1c2oc3c(C)ccc(C(=O)[*:1])c3nc-2c(C(=O)[*:2])c(N)c1=O; NMeV = CN[C@H](C(=O)O)C(C)C; Sar = CNCC(=O)O
# Tested on: ppGalNAc-T3 sensor
# Assay: T3 sensor activation Q score (MG/GFP ratio z-score vs DMSO controls) (SD units); higher = more sensor activation (inhibition of ppGalNAc-T3 glycosylation)
# Conditions: HEK293 sensor cells; 10 µM; 6 h
# Description: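 Cells were treated with compound at 10 uM for 6 h, then MG/GFP ratio was read by flow cytometry (10,000 cells per well, duplicate wells). Q = (R - R_neg)/SD_neg relative to DMSO vehicle controls; the signal rises when the glycosyltransferase is inhibited.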
row,SMILES,T3 sensor activation Q score
1,Nc1nc(F)nc2c1ncn2C1OC(COP(=O)(O)O)C(O)C1O (centres undefined),-0.05
2,CCOC(=O)Nc1ccc2nc(N3CCCCCC3)sc2c1,-0.2
3,CC[C@]1(O)C[C@@H]2CN(CCc3c([nH]c4ccccc34)[C@@](C(=O)OC)(c3cc4c(cc3OC)N(C)[C@H]3[C@@](O)(C(=O)OC)[C@H](OC(C)=O)[C@]5(CC)C=CCN6CC[C@]43[C@@H]65)C2)C1,1.45
4,CC(C)(C)c1ccc(OC(=O)c2ccccc2)cc1,0.55
5,CN(C)c1ccc(N=Nc2cccc3ccoc23)cc1,-0.6
6,Cn1c(N)c(N=Nc2ccc(S(N)(=O)=O)cc2)c(=O)n(C)c1=O,0.75
7,Cc1cc2c3ccccc3ncn2n1,-0.95
8,CCOC(=O)c1c(C)nc(C)c(C(=O)OCC)c1-c1cccnc1,0.9
9,c1ccc2c(c1)Nc1ccncc1S2,-1
10,Cc1cc2c(c(C#N)c1C)NC=NC2C (centres undefined),-1.05
11,CCCNC(=S)Nc1ccccc1,-1
12,CC(C)CCCCCCCCCCCCC(=O)NCC(=O)NC1C(C)OC(Nc2ncnc3nc[nH]c23)C(O)C1O (centres undefined),-1.5
13,CN1CCN(C2=NCCO2)CC1,0.7
14,CC1=Nc2ccccc2/C1=C\c1c(C)[nH]c2ccccc12,-0.45
15,CN1CCC(n2[nH]c(-c3ccccc3)c(Cc3ccccc3)c2=O)CC1,-0.4
16,O=C1NC(=S)S/C1=C\c1ccccc1C(=O)O,-1.45
17,c1coc(CNc2ncnc3[nH]ncc23)c1,-0.4
18,COC(=O)c1ccc(Cn2cnc3c(Cl)ncnc32)cc1,0.3
19,CCCCCCCC1(C)NC(=O)NC1=O (centres undefined),-1.9
20,O=C1c2cccc(Oc3ccccc3)c2C(=O)c2cccc(Oc3ccccc3)c21,-0.1
21,N#CN=C(N)c1ccccc1,1.2
22,CCOC(=O)Cc1csc2nc(-c3ccccc3)nn12,0.25
23,CCOc1ccc(NC(=O)c2cc3ccccc3cc2O)cc1,-0.1
24,COC(=O)N1C2CCCCC2=NN(c2ccccc2)N1C(=O)OC (centres undefined),-0.6

# Quoted at random: 5 records from the list.
row,SMILES,T3 sensor activation Q score
10,Cc1cc2c(c(C#N)c1C)NC=NC2C (centres undefined),-1.05
17,c1coc(CNc2ncnc3[nH]ncc23)c1,-0.4
18,COC(=O)c1ccc(Cn2cnc3c(Cl)ncnc32)cc1,0.3
15,CN1CCC(n2[nH]c(-c3ccccc3)c(Cc3ccccc3)c2=O)CC1,-0.4
22,CCOC(=O)Cc1csc2nc(-c3ccccc3)nn12,0.25

# Next part

row,SMILES,T3 sensor activation Q score
1,C(=N\n1cnnc1)/c1ccc2c(c1)CCC2,0.05
2,Cc1nc(C(N)=O)nc2ccccc12,0.2
3,Cc1c2cnccc2c(C)c2c1c1ccccc1n2CCOC(=O)c1ccccc1,1.8
4,COc1ccc(OC)c(NC(=O)c2cc3oc4ccccc4c3cc2O)c1,-1.55
5,Cn1ncc2c(Nc3ccc([N+](=O)[O-])cc3)nc(Cl)nc21,1.05
6,Clc1nc(NCCc2ccccc2)c2cn[nH]c2n1,0.95
7,COC(=O)c1cc2c(n1S(=O)(=O)c1ccc(C)cc1)C(=O)C(=O)c1[nH]cc(C(=O)OCc3ccccc3)c1-2,0.25
8,CC(C)(C)c1ccc(C(=O)Nc2ccc(S(N)(=O)=O)cc2)cc1,0.9
9,O=C1C2CC3N1CCC31c3ccccc3-n3c1c2ccc3=O (centres undefined),-0.15
10,CC(=O)O[C@]1(C(C)=O)CC[C@H]2[C@@H]3C=C(C)C4=CC(=O)CC[C@]4(C)[C@H]3CC[C@@]21C,0.05
11,CC[C@@]1(O)C(=O)OCc2c1cc1n(c2=O)Cc2cc3c(CN(C)C)c(O)ccc3nc2-1,-1.6
12,Cc1ccc(-c2cc(C(=O)O)c3ccccc3n2)c(C)c1,1.8
13,Clc1nnc(NC2CCCCC2)c(Cl)c1Cl,0.1
14,O=C1CSCc2nc3ccccc3n21,-0.85
15,COC(=O)C(=Cc1ccccc1[N+](=O)[O-])C(=O)OC,-0.8
16,COc1ccccc1/C=C(\C#N)C(=O)O,-0.4
17,Cc1nc2nc(C(F)(F)F)[nH]c2nc1C,1.15
18,"Cc1c2oc3c(C)ccc(C(=O)N[C@@H]4C(=O)N[C@H](C(C)C)C(=O)N5CCC[C@H]5C(=O)N(C)CC(=O)N(C)[C@@H](C(C)C)C(=O)O[C@@H]4C)c3nc-2c(C(=O)N[C@@H]2C(=O)N[C@H](C(C)C)C(=O)N3CCC[C@H]3C(=O)N(C)CC(=O)N(C)[C@@H](C(C)C)C(=O)O[C@@H]2C)c(N)c1=O (I: T[dV]P[Sar][NMeV] / II: T[dV]P[Sar][NMeV]; ester I:1-I:C, II:1-II:C; linker I:N-II:N via Actinocin(9to1))",0.05
19,O=C(Nc1ccc(Cl)c(Cl)c1)Nc1ccc([N+](=O)[O-])cn1,0.55
20,Cn1c2ccccc2c2ccc3c(c21)C(=O)C=CC3=O,1.35
21,C=CCNC(=O)C1COc2ccccc2O1 (centres undefined),-1.25
22,CC(C)Cn1cnc2c(N)nc3ccccc3c21,-1.35
23,O=C(Nc1ccccc1-c1ccccc1)C(=O)Nc1ccccc1-c1ccccc1,1.65
24,c1ccc(-c2nnc(-c3ccccc3)nn2)cc1,-0.3

# Some of the entries so far, bar-delimited.
row | SMILES | T3 sensor activation Q score
23 | O=C(Nc1ccccc1-c1ccccc1)C(=O)Nc1ccccc1-c1ccccc1 | 1.65
24 | c1ccc(-c2nnc(-c3ccccc3)nn2)cc1 | -0.3

# Next compounds follow.

row,SMILES,T3 sensor activation Q score
1,Cc1c2cc(O)c(=O)cc-2oc2cc(O)c(O)cc12,0.15
2,CCOC(=O)c1cc(-c2cccnc2)nc2c(Cl)cc(Cl)cc12,1.7
3,COc1cccc2c1C(CO)N1C(C#N)C3CC(C(=O)O)C(C1C2)N3C (centres undefined),-0.6
4,CCCc1nc(NC(=O)c2ccccc2)nc(NC(=O)c2ccccc2)n1,0.35
5,c1ccc(-c2n[nH]c(-c3ccccn3)n2)nc1,0.8
6,O=C(c1cccnc1)c1cc(-c2ccccn2)c(=O)n2ccccc12,1.25
7,OCCCCc1nccc2c1[nH]c1ccccc12,1
8,Nc1cnc(Nc2ccc(Br)cc2)nc1N,0
9,O=C(/C=C/C(=O)N1CCc2ccccc2C1)N1CCc2ccccc2C1,0.2
10,O=C(/C=C/c1ccc2ccccc2n1)c1cc(Cl)ccc1O,-0.8
11,c1cc(CN2CCCNCCNCCCNCC2)ccc1CN1CCCNCCNCCCNCC1,-0.5
12,COC(=O)CC1(C(=O)OC)Nc2cc(Cl)c(Cl)cc2S(=O)(=O)N1O (centres undefined),0.7
13,O=C(Nc1ccc(F)cc1)OCCOc1ccc(Br)cc1,0.15
14,COc1cc(NC(C)=O)c2ncccc2c1Br,-1.05
15,CC1(C)CCSC(/C=C/c2ccccc2)=N1,-1
16,N#Cc1nnn2c1nc(N)c1c(Cl)cccc12,1.65
17,CCOc1ccc(NC(=O)Nc2cc(C(C)C)ccc2C)cc1,0.4
18,NCC(=O)CCC(=O)O,0.05
19,CCOCCc1c(O)nc(SC)[nH]c1=O,0.55
20,Nc1nc(SCc2ccccc2)sc1C(=O)N1CCCCC1,1.35
21,OCC1(CO)CC2(C1)CC(CO)(CO)C2,-1.15
22,COc1ccc2c(c1)C(=O)C1NC(=O)NC(=O)C1(Br)N2 (centres undefined),-0.1
23,COc1cccc(/C=C/c2nccc3ccccc23)c1OC,0.65
24,NC(=O)c1cc2c3ccccc3ccn2c1-c1ccccc1,2.95

row,SMILES,T3 sensor activation Q score
1,Cn1c(=O)c2[nH]c(COc3ccc(C(C)(C)C)cc3)nc2n(C)c1=O,-0.3
2,COC(=NC(C)C)NC(C)C,-3.05
3,CC1CC(C)(C)NC2(CCCC2)N1 (centres undefined),-0.6
4,COc1ccc2c(c1)CCN1C2CCN2C(=O)CCC21 (centres undefined),-0.35
5,CC1CO/C(=C2\C(=O)OCC2C)C1 (centres undefined),-1.1
6,Cc1cc(-n2cnc3c(=O)[nH]cnc32)ccc1N,1.6
7,Cc1cc(/C=C2\SC(=S)NC2=O)cc(C)c1O,1.6
8,CCC1(C(=O)OC)CCc2c(cc(OC)c3ccccc23)C1=O (centres undefined),0.25
9,CC(=O)CC(=O)Nc1ccc2ccccc2c1,1.25
10,O=C1COc2cccnc2N1,1.4
11,CC(=O)Nc1nc(C)c(CCCOc2ccc([N+](=O)[O-])cc2)c(=O)[nH]1,1.75
12,CCCCc1c(C)[nH]c(=S)[nH]c1=O,-0.85
13,CN1CN(C)C(c2ccncc2)=C1c1ccncc1,0.75
14,CCOC(=O)C1CC(=O)c2cc(OC)c(OC)cc2C1 (centres undefined),0.9
15,COc1ccc(N=Nc2ccc(N)nc2N)cc1,0.75
16,COc1ccc(Cc2nnc(SC)n2-c2ccc(F)cc2)cc1OC,-0.25
17,Cc1nnc2nc(N)[nH]n2c1=O,-1.2
18,CCOC(=O)Nc1c2ccccc2nc2ccccc12,-1.8
19,CS(=O)(=O)Oc1ccc(Br)c2cccnc12,0.95
20,O=C(Nc1ccc2ccccc2c1)c1ccc(Cl)cc1Cl,1
21,COc1cc2c(=O)n3c4c(cccc4c2cc1OC)CC3,1.2
22,COc1ccc(C(C)=O)cc1CO/N=C1\CSCc2ccccc21,1.45
23,COc1cc(C(=O)C(=O)c2ccc(O)c(OC)c2)ccc1O,0.75
24,Oc1ccc(Nc2ccc3ccccc3c2)cc1,0.1

row,SMILES,T3 sensor activation Q score
1,Nc1nc2c(ncn2C2CCCC2)c(=O)[nH]1,-0.9
2,CCCCC(=O)N1CCCC(C)C1 (centres undefined),-1.35
3,Nc1ncnc2c1cnn2C1CCCCC1,-0.5
4,CCN(CC)CCNc1c(C)cc(CO)c(Cl)c1C,0.85
5,CCOC(=O)C1C(=O)C(=O)N(C(C)C)C1C(=O)OCC (centres undefined),1.05
6,Nc1ncc2[nH]c(N)nc2n1,1.65
7,O=C(NC1(N2CCOCC2)CC1)c1ccc(Cl)cc1,-0.7
8,Nc1ncn([C@H]2C[C@H](O)[C@@H](CO)O2)c(=O)n1,1.05
9,Clc1nc(Cl)nc(-c2cn(-c3ccccc3)c3ccccc23)n1,-0.15
10,Nc1ccc(Cn2ccc3c4c(N)nc(N)nc4ccc32)cc1,-0.95
11,c1ccc(-c2nc(-c3ccccn3)nc(-c3ccccn3)n2)nc1,-0.7
12,O=C(COc1cc(Cl)c(Cl)cc1Cl)Nc1ccc([N+](=O)[O-])cc1Cl,-0.3
13,Brc1ccc(N=Nc2ccc3ccccc3n2)cc1,0.5
14,O=C([O-])C(=O)[O-].[NH-][C@@H]1CCCC[C@H]1[NH-].[Pt+4],-0.4
15,Cc1cccc(NC2=C(C#N)C(=O)NC3(CCCC3)S2)c1,-1.15
16,O=C1c2cccc(Sc3ccccc3)c2C(=O)c2c(Sc3ccccc3)cccc21,0.1
17,CCOC(=O)Cc1c[nH]c(=S)[nH]c1=O,0.3
18,C/C=C1\NC(=O)[C@H]2CSSCC/C=C/[C@H](CC(=O)N[C@H](C(C)C)C(=O)N2)OC(=O)[C@H](C(C)C)NC1=O,-0.5
19,CCCNC(=O)c1ccc(S(N)(=O)=O)cc1,0.65
20,Cc1ccc(Cl)cc1NC(=O)N(C)CCO,1.55
21,Cn1ccc(=Nc2ccc(NC(=O)c3ccc(N=c4ccn(C)c5ccc([N+](=O)[O-])cc45)cc3)cc2)cc1,1.4
22,CCOC(=O)CC1(C)NC(C(=O)O)C(C)(C)S1 (centres undefined),0.05
23,CS(=O)(=O)Nc1nc2ccccc2[nH]1,0.6
